Measured values taken from patent US9156831B2, “Chemical compounds” (ASTRAZENECA AB, priority 2013, dated 2015).
Where two headings read alike, the source gives them in different places.

Tested on: collection of 209 cancer cell lines
[1] = KRAS AND PIK3CA MUT (hotspot mutations)
[2] = PIK3CA MUT and KRAS WT (hotspot mutations)

CCn1nc(C2CCN(C(=O)CCO)CC2)nc1-c1cnc(N)c(-c2nnc(C(C)(C)C)o2)n1 [Example 3, 1-(4-(5-(5-amino-6-(5-tert-butyl-1,3,4-oxadiazol-2-yl)pyrazin-2-yl)-1-ethyl-1H-1,2,4-triazol-3-yl)piperidin-1-yl)-3-hydroxypropan-1-one]
number of cell lines, Response Resistant [1]: 7 | number of cell lines, Response Sensitive [1]: 2 | number of cell lines, Response Resistant [2]: 6 | number of cell lines, Response Sensitive [2]: 13 | number of cell lines, Response Resistant (PIK3CA MUT cell lines): 17 | number of cell lines, Response Sensitive (PIK3CA MUT cell lines): 15 | number of cell lines, Response Resistant (PIK3CA WT cell lines): 165 | number of cell lines, Response Sensitive (PIK3CA WT cell lines): 12 | cell lines sensitive (PIK3CA WT cell lines (12 of 177)): 7.7% | cell lines resistant (PIK3CA mutant with coexisting KRAS mutations (7 of 9)): 77.8% | cell lines resistant (activating PIK3CA mutation and wild-type KRAS (6 of 19)): 31.6% | cell lines sensitive (cell lines mutant for PIK3CA (15 of 32)): 46.9%
